# Taken from: PubChem BioAssay AID1224828 (NIAID, 2016)
# Aim: 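Knock-downs that increase or decrease LPS-induced p65 nuclear translocation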 (primary screen)
# Cell system: mouse RAW264.7 G9 macrophage reporter cells (GFP-p65, Tnf promoter-mCherry)
# Reagent: siRNA pool against mouse genes, 100 nM
# Time to read-out: 2 days siRNA transfection, then 40 min LPS before fixation
# Treatment: LPS (Salmonella minnesota R595) at 10 ng/ml
# Detection: 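Imaged p65 nuclear translocation ratio, normalised to the plate median, converted to robust z-scores and averaged across two replicates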
# Direction: p65 translocation robust z-score: higher = more nuclear NF-kappaB p65 after LPS than the plate median; nuclear/cytoplasmic p65 ratio: higher = more nuclear NF-kappaB p65
# Active means: 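Called active when z exceeds 3.3 or falls under -1.56 (median of Tlr4 controls), giving activity score of at least 50; no calls for control wells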
# Calls: active = hit (p65 shift raised or lowered); inactive = no clear change
# This is an unselected part of about 17,000 deposited reagents. 762 of them (4.5%) count as active. 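Active calls include both raised and lowered p65 entry, mostly lowered; wells with fewer than 50 cells lack a z-score.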 Raw values vary from plate to plate and are shown uncorrected. Unmarked entries are inactive.
p65 translocation robust z-score,"nuclear/cytoplasmic p65 ratio, rep 1","nuclear/cytoplasmic p65 ratio, rep 2",low cell count flag,gene knocked down
-0.42,1.67,1.47,enough cells to score,Ly6d
0.08,1.37,1.74,enough cells to score,Gpr84
-1.88 (active),1.18,1.16,enough cells to score,Cdx1
-0.23,1.63,1.71,enough cells to score,Slc22a26
-0.27,1.33,1.46,enough cells to score,Trmt5
-0.25,1.46,1.51,enough cells to score,Terf2ip
1.02,1.6,1.48,enough cells to score,Hmga2
1.39,1.16,1.34,enough cells to score,Tas2r123
-1.56,1.43,1.25,enough cells to score,Zic3
,1.55,1.22,fewer than 50 cells per well; well left out of scoring,Pmepa1
0.58,1.62,1.63,enough cells to score,Adcyap1r1
0.38,1.46,1.27,enough cells to score,Scml2
0.93,1.52,1.58,enough cells to score,Lin9
0.6,1.83,1.55,enough cells to score,Gpc6
,1.6,2.04,fewer than 50 cells per well; well left out of scoring,Pan3
1.32,1.63,1.34,enough cells to score,Trim61
-0.89,1.47,1.31,enough cells to score,Rhof
-0.31,1.4,1.37,enough cells to score,Kcne1
1.11,1.55,1.74,enough cells to score,Hikeshi
0.46,1.66,1.72,enough cells to score,Ahrr
,1.42,1.24,fewer than 50 cells per well; well left out of scoring,Zfp59
0.1,1.52,1.41,enough cells to score,Plaa
-0.37,1.34,1.36,enough cells to score,Gadd45gip1
-0.97,1.37,1.41,enough cells to score,F630111L10Rik
-0.16,1.47,1.35,enough cells to score,Pank2
-0.04,1.43,1.2,enough cells to score,Scml4
1.27,1.8,1.61,enough cells to score,Csnk1g2
3.32 (active),1.97,1.73,enough cells to score,Dnajc5b
-0.87,1.19,1.17,enough cells to score,Dipk2b
0.2,1.39,1.47,enough cells to score,Cd96
0.2,1.41,1.23,enough cells to score,Rabgap1
0.11,1.53,1.36,enough cells to score,Itgb2
-0.84,1.65,1.47,enough cells to score,Myef2
,1.39,1.17,fewer than 50 cells per well; well left out of scoring,Gpnmb
-2.06 (active),1.39,1.23,enough cells to score,Or5d39
-1.05,1.37,1.2,enough cells to score,Col15a1
,1.37,1.74,fewer than 50 cells per well; well left out of scoring,Echdc2
-0.12,1.34,1.22,enough cells to score,Ptcd1
0.83,1.67,1.81,enough cells to score,Alg3
0.93,1.43,1.33,enough cells to score,Smpd4
-1.14,1.69,1.34,enough cells to score,Mrgpre
2.27,2.03,1.84,enough cells to score,Helb
0.31,1.59,1.4,enough cells to score,Cpa1
-0.51,1.42,1.28,enough cells to score,Eif4a2
-0.68,1.5,1.53,enough cells to score,Add1
,1.53,1.27,fewer than 50 cells per well; well left out of scoring,Slc5a7
,1.34,1.02,fewer than 50 cells per well; well left out of scoring,Vcp
1.03,1.84,1.52,enough cells to score,Dusp5
-0.19,1.56,1.51,enough cells to score,Wnt1
1.71,1.76,2.13,enough cells to score,Cyp2c29
,1.7,1.57,fewer than 50 cells per well; well left out of scoring,Or51af1
0.66,1.6,1.97,enough cells to score,Cpa4
-0.08,1.17,1.35,enough cells to score,Csf3
0.02,1.5,1.54,enough cells to score,Rbbp7
,1.62,1.47,fewer than 50 cells per well; well left out of scoring,Or6z1
2.42,2.02,2.09,enough cells to score,Mrpl50
1.02,1.66,1.52,enough cells to score,Prrx1
0.4,1.47,1.6,enough cells to score,Bco1
-0.19,1.43,1.37,enough cells to score,Il18r1

In a second layout: results already given
Gpc6
- p65 translocation robust z-score: 0.6
- nuclear/cytoplasmic p65 ratio, rep 1: 1.83
- nuclear/cytoplasmic p65 ratio, rep 2: 1.55
- low cell count flag: enough cells to score

Pan3
- nuclear/cytoplasmic p65 ratio, rep 1: 1.6
- nuclear/cytoplasmic p65 ratio, rep 2: 2.04
- low cell count flag: fewer than 50 cells per well; well left out of scoring

Trim61
- p65 translocation robust z-score: 1.32
- nuclear/cytoplasmic p65 ratio, rep 1: 1.63
- nuclear/cytoplasmic p65 ratio, rep 2: 1.34
- low cell count flag: enough cells to score

Rhof
- p65 translocation robust z-score: -0.89
- nuclear/cytoplasmic p65 ratio, rep 1: 1.47
- nuclear/cytoplasmic p65 ratio, rep 2: 1.31
- low cell count flag: enough cells to score
